Experimental data published in the supplement of paper PMC6411743.
± gives the standard deviation of the averaged measurements. The list shows a part of the results, in another mix than the full data.

Chains of the proteins cited; added tags and fusions are not shown. Lines headed by an entry give the natural chain unless they say otherwise; changes in a name come on top.
UniProt Q9HBM1: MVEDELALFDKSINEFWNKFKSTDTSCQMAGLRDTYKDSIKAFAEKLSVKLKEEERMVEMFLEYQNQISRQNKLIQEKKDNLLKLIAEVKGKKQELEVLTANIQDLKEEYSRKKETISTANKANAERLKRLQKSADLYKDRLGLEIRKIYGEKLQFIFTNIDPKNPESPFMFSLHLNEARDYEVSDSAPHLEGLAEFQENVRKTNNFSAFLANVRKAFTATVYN
UniProt Q9H223: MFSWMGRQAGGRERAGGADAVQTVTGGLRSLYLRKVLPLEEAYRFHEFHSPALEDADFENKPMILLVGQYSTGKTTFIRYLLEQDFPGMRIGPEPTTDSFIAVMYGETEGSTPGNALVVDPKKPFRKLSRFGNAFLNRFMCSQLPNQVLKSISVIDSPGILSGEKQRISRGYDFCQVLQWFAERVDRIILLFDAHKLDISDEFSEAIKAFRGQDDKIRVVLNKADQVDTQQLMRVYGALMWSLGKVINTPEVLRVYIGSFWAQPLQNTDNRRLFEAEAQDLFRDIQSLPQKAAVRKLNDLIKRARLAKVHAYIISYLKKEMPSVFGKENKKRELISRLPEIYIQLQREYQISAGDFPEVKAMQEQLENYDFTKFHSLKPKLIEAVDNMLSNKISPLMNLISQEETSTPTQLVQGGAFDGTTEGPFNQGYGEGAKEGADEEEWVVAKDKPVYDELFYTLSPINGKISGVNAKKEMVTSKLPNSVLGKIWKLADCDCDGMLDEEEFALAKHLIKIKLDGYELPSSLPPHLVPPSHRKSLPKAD
UniProt Q9HCJ0: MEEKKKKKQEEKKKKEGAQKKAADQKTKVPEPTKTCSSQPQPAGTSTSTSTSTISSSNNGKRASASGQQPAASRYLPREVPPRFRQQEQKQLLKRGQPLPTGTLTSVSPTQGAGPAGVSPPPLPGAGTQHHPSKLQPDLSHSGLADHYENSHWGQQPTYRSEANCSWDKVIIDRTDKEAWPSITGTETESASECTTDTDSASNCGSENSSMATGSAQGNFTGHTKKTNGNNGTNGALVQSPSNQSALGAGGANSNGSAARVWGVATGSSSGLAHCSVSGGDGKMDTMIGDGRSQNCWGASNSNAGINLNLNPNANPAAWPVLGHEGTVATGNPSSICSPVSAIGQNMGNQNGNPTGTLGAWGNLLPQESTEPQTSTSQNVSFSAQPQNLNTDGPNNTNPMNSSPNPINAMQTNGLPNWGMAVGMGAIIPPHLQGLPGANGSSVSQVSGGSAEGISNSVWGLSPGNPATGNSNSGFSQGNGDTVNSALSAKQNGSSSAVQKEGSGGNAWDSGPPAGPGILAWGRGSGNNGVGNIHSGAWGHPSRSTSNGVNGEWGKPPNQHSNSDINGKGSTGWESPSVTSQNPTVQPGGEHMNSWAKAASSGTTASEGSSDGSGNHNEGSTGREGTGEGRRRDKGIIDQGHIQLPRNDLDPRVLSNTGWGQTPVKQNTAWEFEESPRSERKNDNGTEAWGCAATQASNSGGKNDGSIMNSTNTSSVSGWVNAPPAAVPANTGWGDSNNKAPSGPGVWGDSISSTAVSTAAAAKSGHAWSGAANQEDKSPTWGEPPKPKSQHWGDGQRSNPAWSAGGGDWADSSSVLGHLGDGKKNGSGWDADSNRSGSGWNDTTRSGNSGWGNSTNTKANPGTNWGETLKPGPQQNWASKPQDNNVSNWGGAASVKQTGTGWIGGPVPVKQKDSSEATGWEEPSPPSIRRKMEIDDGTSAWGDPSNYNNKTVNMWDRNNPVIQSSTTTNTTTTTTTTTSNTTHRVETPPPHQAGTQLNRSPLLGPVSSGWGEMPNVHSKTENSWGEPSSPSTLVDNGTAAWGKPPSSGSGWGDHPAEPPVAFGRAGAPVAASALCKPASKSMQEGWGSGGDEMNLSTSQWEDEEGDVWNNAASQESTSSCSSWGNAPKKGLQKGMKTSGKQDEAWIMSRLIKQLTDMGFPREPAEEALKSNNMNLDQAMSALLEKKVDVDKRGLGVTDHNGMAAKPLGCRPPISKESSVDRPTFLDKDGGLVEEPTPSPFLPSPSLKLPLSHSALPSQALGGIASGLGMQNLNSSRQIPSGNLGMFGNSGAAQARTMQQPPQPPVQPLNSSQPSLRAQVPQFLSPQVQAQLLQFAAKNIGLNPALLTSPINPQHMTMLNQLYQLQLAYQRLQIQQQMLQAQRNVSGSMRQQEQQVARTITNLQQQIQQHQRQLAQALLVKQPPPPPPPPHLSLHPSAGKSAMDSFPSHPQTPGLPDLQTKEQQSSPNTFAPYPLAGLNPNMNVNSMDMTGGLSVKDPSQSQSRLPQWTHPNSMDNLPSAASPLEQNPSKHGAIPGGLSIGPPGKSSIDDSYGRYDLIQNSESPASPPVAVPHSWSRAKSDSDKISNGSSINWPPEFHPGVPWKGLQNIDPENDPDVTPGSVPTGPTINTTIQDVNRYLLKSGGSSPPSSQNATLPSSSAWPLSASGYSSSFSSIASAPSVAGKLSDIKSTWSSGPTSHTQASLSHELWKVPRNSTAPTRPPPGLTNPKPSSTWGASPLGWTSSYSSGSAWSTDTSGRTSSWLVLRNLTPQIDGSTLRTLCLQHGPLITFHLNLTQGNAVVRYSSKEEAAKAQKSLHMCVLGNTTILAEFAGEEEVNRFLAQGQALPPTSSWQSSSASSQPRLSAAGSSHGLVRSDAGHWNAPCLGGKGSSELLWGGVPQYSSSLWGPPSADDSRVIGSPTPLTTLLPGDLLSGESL
UniProt Q9H553: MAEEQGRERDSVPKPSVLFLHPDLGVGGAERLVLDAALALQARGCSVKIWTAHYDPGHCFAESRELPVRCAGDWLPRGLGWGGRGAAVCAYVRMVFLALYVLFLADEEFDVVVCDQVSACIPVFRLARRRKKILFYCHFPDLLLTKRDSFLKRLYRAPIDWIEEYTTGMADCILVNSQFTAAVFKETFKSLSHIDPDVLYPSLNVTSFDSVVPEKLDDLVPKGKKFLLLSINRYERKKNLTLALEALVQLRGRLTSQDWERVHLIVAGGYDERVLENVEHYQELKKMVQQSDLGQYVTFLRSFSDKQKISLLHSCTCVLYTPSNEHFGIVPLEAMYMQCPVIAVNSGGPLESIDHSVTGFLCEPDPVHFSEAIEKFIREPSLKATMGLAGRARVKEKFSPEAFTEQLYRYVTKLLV
UniProt Q9H9B1: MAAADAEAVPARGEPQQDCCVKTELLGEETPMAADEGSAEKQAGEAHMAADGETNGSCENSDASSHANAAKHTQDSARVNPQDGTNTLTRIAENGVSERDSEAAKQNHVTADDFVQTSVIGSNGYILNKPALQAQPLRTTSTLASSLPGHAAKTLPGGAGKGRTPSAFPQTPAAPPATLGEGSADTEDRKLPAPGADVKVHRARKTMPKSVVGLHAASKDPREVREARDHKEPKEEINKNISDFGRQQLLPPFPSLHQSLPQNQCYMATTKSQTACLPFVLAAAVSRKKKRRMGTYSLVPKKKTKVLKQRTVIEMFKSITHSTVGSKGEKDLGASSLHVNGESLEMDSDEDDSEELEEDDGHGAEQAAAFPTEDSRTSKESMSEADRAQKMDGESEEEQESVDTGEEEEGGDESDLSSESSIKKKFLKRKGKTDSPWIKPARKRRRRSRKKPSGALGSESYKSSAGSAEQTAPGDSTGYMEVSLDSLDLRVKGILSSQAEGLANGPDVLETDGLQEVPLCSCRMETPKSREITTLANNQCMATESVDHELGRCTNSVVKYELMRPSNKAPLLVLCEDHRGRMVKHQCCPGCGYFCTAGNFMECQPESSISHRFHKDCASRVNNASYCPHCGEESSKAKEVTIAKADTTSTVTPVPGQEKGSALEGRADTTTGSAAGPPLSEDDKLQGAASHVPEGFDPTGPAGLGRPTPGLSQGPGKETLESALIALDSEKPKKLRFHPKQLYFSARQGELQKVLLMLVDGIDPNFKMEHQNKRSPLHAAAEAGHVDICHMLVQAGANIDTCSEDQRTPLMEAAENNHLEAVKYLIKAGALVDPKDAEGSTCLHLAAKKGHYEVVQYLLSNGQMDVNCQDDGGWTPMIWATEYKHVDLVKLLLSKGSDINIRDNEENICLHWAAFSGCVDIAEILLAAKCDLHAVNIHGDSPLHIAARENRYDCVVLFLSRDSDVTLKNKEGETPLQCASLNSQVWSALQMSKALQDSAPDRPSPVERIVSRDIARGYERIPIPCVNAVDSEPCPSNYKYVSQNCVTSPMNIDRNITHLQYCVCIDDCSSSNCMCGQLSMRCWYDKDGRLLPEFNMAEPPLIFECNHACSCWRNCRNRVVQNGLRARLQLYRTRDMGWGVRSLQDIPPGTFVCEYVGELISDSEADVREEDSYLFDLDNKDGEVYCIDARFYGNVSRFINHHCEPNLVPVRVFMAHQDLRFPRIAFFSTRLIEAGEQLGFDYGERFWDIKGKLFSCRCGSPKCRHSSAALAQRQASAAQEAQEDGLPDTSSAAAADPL
UniProt Q9H0K6: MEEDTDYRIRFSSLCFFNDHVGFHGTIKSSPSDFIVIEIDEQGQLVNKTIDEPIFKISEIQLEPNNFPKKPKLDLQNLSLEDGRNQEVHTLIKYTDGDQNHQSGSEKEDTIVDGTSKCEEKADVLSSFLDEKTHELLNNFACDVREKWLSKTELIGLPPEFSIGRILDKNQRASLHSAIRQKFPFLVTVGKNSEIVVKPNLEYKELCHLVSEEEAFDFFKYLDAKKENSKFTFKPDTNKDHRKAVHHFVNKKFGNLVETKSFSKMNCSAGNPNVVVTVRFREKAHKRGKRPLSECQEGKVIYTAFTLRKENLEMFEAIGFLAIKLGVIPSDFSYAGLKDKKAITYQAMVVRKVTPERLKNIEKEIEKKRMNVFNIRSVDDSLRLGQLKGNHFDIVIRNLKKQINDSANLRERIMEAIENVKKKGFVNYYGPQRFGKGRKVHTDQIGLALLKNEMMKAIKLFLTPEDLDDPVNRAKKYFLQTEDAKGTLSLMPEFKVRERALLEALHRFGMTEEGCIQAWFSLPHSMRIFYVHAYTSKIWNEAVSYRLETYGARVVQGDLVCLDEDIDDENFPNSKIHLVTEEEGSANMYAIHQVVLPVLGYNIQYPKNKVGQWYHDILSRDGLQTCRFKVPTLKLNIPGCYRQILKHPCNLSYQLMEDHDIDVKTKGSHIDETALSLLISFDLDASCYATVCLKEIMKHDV
UniProt Q9H8W3: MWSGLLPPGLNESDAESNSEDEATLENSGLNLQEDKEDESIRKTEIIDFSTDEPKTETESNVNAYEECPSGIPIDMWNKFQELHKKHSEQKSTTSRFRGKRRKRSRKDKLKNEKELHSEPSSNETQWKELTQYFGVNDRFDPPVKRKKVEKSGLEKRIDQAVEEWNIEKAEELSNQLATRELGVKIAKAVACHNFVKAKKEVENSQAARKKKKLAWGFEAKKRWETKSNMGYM
UniProt Q9HD42: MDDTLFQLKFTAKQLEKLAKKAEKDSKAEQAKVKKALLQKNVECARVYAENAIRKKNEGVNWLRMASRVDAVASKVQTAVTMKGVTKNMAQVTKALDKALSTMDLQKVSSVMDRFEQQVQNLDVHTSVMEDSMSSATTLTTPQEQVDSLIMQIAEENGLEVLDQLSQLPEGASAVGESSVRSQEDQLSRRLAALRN
UniProt Q9H813: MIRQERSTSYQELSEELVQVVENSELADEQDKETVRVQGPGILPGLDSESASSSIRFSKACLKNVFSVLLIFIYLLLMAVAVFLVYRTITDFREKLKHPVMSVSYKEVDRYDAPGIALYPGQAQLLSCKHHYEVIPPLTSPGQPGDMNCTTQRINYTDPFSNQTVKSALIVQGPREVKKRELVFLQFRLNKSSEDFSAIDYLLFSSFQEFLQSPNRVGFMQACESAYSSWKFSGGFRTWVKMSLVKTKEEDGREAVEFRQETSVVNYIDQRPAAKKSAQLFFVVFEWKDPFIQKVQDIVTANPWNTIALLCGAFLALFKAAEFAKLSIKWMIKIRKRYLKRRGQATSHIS
UniProt Q9NP72: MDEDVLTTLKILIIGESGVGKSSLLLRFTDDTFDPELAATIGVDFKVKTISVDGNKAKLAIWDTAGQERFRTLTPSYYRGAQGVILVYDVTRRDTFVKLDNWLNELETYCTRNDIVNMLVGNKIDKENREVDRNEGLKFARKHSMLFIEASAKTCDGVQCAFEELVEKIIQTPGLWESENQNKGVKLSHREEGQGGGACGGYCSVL
UniProt Q9HB40: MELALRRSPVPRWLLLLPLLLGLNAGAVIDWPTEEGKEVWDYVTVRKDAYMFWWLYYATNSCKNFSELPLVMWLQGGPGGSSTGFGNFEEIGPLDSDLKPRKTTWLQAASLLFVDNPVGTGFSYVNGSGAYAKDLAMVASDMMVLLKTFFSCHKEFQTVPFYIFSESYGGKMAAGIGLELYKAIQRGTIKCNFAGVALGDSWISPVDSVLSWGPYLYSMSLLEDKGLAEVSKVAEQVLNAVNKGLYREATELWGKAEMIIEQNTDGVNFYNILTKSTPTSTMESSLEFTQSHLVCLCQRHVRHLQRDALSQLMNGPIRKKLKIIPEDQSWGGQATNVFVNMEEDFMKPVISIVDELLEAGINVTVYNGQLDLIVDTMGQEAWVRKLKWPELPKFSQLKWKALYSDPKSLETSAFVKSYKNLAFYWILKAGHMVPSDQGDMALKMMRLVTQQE

Compound: Nc1ncnc2c1ncn2[C@@H]1O[C@H](COP(=O)(O)OP(=O)(O)OP(=O)(O)O)[C@@H](O)[C@H]1O [adenosine triphosphate]
Assay: NP40-soluble protein abundance relative to vehicle (solubility fold change) (ratio); higher = more soluble protein in presence of ATP
Method in brief: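 Across three independent experiments, values are fold changes against the detergent-processed vehicle for each replicate, based on vsn-normalised intensities. The samples were Jurkat crude lysate treated with eight concentrations (0.1 to 10 mM) for 10 min at room temperature and then 3 min at 37 °C. Lysate was solubilised with 0.8% NP40 and benzonase, ultracentrifuged, and the supernatant analysed by TMT-labelled LC-MS/MS.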

Target	NP40-soluble protein abundance (concentration: 1mM)	NP40-soluble protein abundance (concentration: 2mM)	NP40-soluble protein abundance (concentration: 4mM)	NP40-soluble protein abundance (concentration: 6mM)	NP40-soluble protein abundance (concentration: 8mM)	NP40-soluble protein abundance (concentration: 10mM)
SPC25 (UniProt Q9HBM1)	0.967 ± 0.032	0.98 ± 0.011	0.967 ± 0.019	0.9684 ± 0.0042	0.942 ± 0.013	0.91 ± 0.059
NUCKS1 (UniProt Q9H1E3)	0.815 ± 0.14	0.746 ± 0.058	0.607 ± 0.053	0.582 ± 0.057	0.504 ± 0.037	0.479 ± 0.074
GGNBP2 (UniProt Q9H3C7)	1.1 ± 0.067	1.08 ± 0.035	1.2 ± 0.019	1.15 ± 0.036	1.12 ± 0.091	1.07 ± 0.047
GOLPH3L (UniProt Q9H4A5)	0.966 ± 0.033	0.965 ± 0.037	0.9576 ± 0.0063	0.949 ± 0.022	0.945 ± 0.012	0.926 ± 0.049
EHD4 (UniProt Q9H223)	1.02 ± 0.023	1.02 ± 0.02	1.01 ± 0.028	0.985 ± 0.042	0.996 ± 0.032	0.998 ± 0.063
RRAGC (UniProt Q9HB90)	1.09 ± 0.13	1.06 ± 0.15	1.05 ± 0.077	1.04 ± 0.094	1.02 ± 0.092	1.05 ± 0.055
UniProt Q9H7B2	1.11 ± 0.1	1.16 ± 0.028	1.14 ± 0.042	1.08 ± 0.12	1.03 ± 0.084	0.992 ± 0.038
CDT1 (UniProt Q9H211)	1 ± 0.075	1.03 ± 0.037	1.04 ± 0.076	1.06 ± 0.061	1.02 ± 0.055	1.01 ± 0.053
UniProt Q9H9G7	1.09 ± 0.15	1.16 ± 0.058	1.11 ± 0.14	1.12 ± 0.039	1.17 ± 0.059	1.13 ± 0.042
UNK (UniProt Q9C0B0)	1.08 ± 0.061	1.1 ± 0.035	1.13 ± 0.044	1.19 ± 0.054	1.131 ± 0.0036	1.14 ± 0.018
UniProt Q9HCJ0 and related entries	0.98 ± 0.1	1.03 ± 0.055	1.01 ± 0.069	1.05 ± 0.099	1.03 ± 0.081	1.05 ± 0.047
UniProt Q9H9A5 and related entries	1.11 ± 0.045	1.15 ± 0.025	1.22 ± 0.051	1.19 ± 0.069	1.23 ± 0.028	1.3 ± 0.062
UniProt Q9H1P3 and related entries	0.977 ± 0.036	0.99 ± 0.052	0.968 ± 0.038	0.932 ± 0.11	0.975 ± 0.037	0.969 ± 0.044
UniProt Q9C0D5 and related entries	0.947 ± 0.1	1.01 ± 0.049	0.987 ± 0.021	1.02 ± 0.09	0.958 ± 0.046	1 ± 0.034
SFXN1 (UniProt Q9H9B4)	0.971 ± 0.012	0.978 ± 0.023	0.959 ± 0.02	0.96 ± 0.051	0.9536 ± 0.0036	0.959 ± 0.021
UniProt Q9H867 and related entries	0.943 ± 0.044	0.97 ± 0.22	1.154 ± 0.0016	0.997 ± 0.042	0.966 ± 0.074	1.04 ± 0.041
ALG2 (UniProt Q9H553)	1.03 ± 0.045	0.985 ± 0.021	0.945 ± 0.084	0.949 ± 0.096	0.962 ± 0.057	0.946 ± 0.051
UniProt Q9H8P0 and related entries	1.05 ± 0.12	1.04 ± 0.13	1.06 ± 0.019	0.927 ± 0.065	1.06 ± 0.074	1.024 ± 0.0021
UniProt Q9H1K0	0.924 ± 0.16	0.958 ± 0.15	0.909 ± 0.11	0.846 ± 0.17	0.914 ± 0.068	0.882 ± 0.077
CACYBP (UniProt Q9HB71)	0.951 ± 0.027	0.9495 ± 0.0029	0.899 ± 0.02	0.979 ± 0.025	0.912 ± 0.035	0.91 ± 0.021

Quoted at random: 4 records from the list.
Target	NP40-soluble protein abundance (concentration: 1mM)	NP40-soluble protein abundance (concentration: 2mM)	NP40-soluble protein abundance (concentration: 4mM)	NP40-soluble protein abundance (concentration: 6mM)	NP40-soluble protein abundance (concentration: 8mM)	NP40-soluble protein abundance (concentration: 10mM)
SPC25 (UniProt Q9HBM1)	0.967 ± 0.032	0.98 ± 0.011	0.967 ± 0.019	0.9684 ± 0.0042	0.942 ± 0.013	0.91 ± 0.059
RRAGC (UniProt Q9HB90)	1.09 ± 0.13	1.06 ± 0.15	1.05 ± 0.077	1.04 ± 0.094	1.02 ± 0.092	1.05 ± 0.055
UniProt Q9H9G7	1.09 ± 0.15	1.16 ± 0.058	1.11 ± 0.14	1.12 ± 0.039	1.17 ± 0.059	1.13 ± 0.042
UNK (UniProt Q9C0B0)	1.08 ± 0.061	1.1 ± 0.035	1.13 ± 0.044	1.19 ± 0.054	1.131 ± 0.0036	1.14 ± 0.018

(continued)

Target	NP40-soluble protein abundance (concentration: 1mM)	NP40-soluble protein abundance (concentration: 2mM)	NP40-soluble protein abundance (concentration: 4mM)	NP40-soluble protein abundance (concentration: 6mM)	NP40-soluble protein abundance (concentration: 8mM)	NP40-soluble protein abundance (concentration: 10mM)
UniProt Q9C0B5 and related entries	0.835 ± 0.04	0.887 ± 0.023	0.851 ± 0.041	0.848 ± 0.036	0.817 ± 0.032	0.823 ± 0.035
UniProt Q9HCC0-2	1.03 ± 0.02	0.9984 ± 0.0071	1.01 ± 0.016	0.994 ± 0.024	0.999 ± 0.048	0.995 ± 0.039
WDR54 (UniProt Q9H977)	1.03 ± 0.12	1.04 ± 0.14	1.06 ± 0.17	0.977 ± 0.12	0.995 ± 0.12	1.03 ± 0.16
UniProt Q9HAU0 and related entries	1.04 ± 0.11	1.03 ± 0.11	1.09 ± 0.15	1.14 ± 0.14	1.1 ± 0.11	1.13 ± 0.094
REEP4 (UniProt Q9H6H4)	0.928 ± 0.08	0.958 ± 0.065	0.957 ± 0.1	0.898 ± 0.12	0.938 ± 0.14	0.965 ± 0.069
JPH1 (UniProt Q9HDC5)	1.17 ± 0.072	1.23 ± 0.13	1.28 ± 0.1	1.34 ± 0.12	1.31 ± 0.044	1.43 ± 0.094
UniProt Q9HD26 and related entries	1.01 ± 0.044	0.98 ± 0.028	0.984 ± 0.045	0.965 ± 0.05	0.978 ± 0.038	0.952 ± 0.031
TFB2M (UniProt Q9H5Q4)	1.049 ± 0.0065	0.973 ± 0.023	0.975 ± 0.032	0.965 ± 0.037	1.02 ± 0.053	1.05 ± 0.073
UniProt Q9H2H8 and related entries	0.995 ± 0.015	0.974 ± 0.057	0.975 ± 0.054	1.01 ± 0.076	0.986 ± 0.08	0.986 ± 0.035
UBA5 (UniProt Q9GZZ9)	0.965 ± 0.016	0.967 ± 0.055	0.946 ± 0.041	0.975 ± 0.053	0.948 ± 0.057	0.948 ± 0.047
C12orf65 (UniProt Q9H3J6)	0.929 ± 0.036	0.897 ± 0.059	1.19 ± 0.054	1.284 ± 0.0085	1.29 ± 0.15	1.24 ± 0.15
UniProt Q9H8K7	1.06 ± 0.056	1.01 ± 0.032	1.026 ± 0.0098	1.03 ± 0.021	0.999 ± 0.058	1.04 ± 0.11
UniProt Q9H0R4 and related entries	0.931 ± 0.01	0.932 ± 0.022	0.912 ± 0.072	0.932 ± 0.016	0.921 ± 0.028	0.882 ± 0.02
UniProt Q9H9E3 and related entries	1.017 ± 0.0098	0.982 ± 0.032	0.9787 ± 0.0091	0.979 ± 0.028	0.983 ± 0.012	0.972 ± 0.026
EHMT1 (UniProt Q9H9B1)	0.9 ± 0.064	1.06 ± 0.077	1 ± 0.031	1.09 ± 0.12	1.01 ± 0.031	0.999 ± 0.018
TSPYL1 (UniProt Q9H0U9)	0.965 ± 0.043	1.01 ± 0.018	0.931 ± 0.029	0.978 ± 0.043	1.03 ± 0.039	0.975 ± 0.075
WDR76 (UniProt Q9H967)	1.2 ± 0.24	1.11 ± 0.16	1.19 ± 0.14	1.16 ± 0.14	1.25 ± 0.11	1.18 ± 0.13
UniProt Q9H2P9 and related entries	0.973 ± 0.045	0.9495 ± 0.0053	0.92 ± 0.051	0.929 ± 0.041	0.941 ± 0.045	0.946 ± 0.022
YTHDC2 (UniProt Q9H6S0)	1.33 ± 0.078	1.32 ± 0.039	1.37 ± 0.064	1.35 ± 0.096	1.47 ± 0.1	1.52 ± 0.056
ACTR5 (UniProt Q9H9F9)	1.08 ± 0.037	1.13 ± 0.019	1.17 ± 0.072	1.22 ± 0.12	1.18 ± 0.018	1.28 ± 0.027

Target	NP40-soluble protein abundance (concentration: 1mM)	NP40-soluble protein abundance (concentration: 2mM)	NP40-soluble protein abundance (concentration: 4mM)	NP40-soluble protein abundance (concentration: 6mM)	NP40-soluble protein abundance (concentration: 8mM)	NP40-soluble protein abundance (concentration: 10mM)
PUS7L (UniProt Q9H0K6)	1.02 ± 0.12	1.02 ± 0.055	1.1 ± 0.098	1.07 ± 0.086	1.11 ± 0.13	1.07 ± 0.12
UniProt Q9H3H3-2|Q9H3H3-3	0.975 ± 0.099	0.957 ± 0.095	0.999 ± 0.076	0.884 ± 0.12	0.961 ± 0.11	0.965 ± 0.096
PARVG (UniProt Q9HBI0)	1 ± 0.12	0.993 ± 0.085	0.978 ± 0.09	0.877 ± 0.14	0.972 ± 0.057	0.982 ± 0.053
EML4 (UniProt Q9HC35)	0.939 ± 0.026	0.954 ± 0.028	0.942 ± 0.015	0.952 ± 0.016	0.973 ± 0.016	0.972 ± 0.014
FN3KRP (UniProt Q9HA64)	1 ± 0.028	1.01 ± 0.057	0.983 ± 0.054	0.98 ± 0.1	1.02 ± 0.066	0.991 ± 0.047
RAB33B (UniProt Q9H082)	1 ± 0.038	1.01 ± 0.028	0.959 ± 0.022	0.937 ± 0.069	0.96 ± 0.041	0.956 ± 0.037
REXO4 (UniProt Q9GZR2)	1.03 ± 0.032	1.04 ± 0.024	1.07 ± 0.019	1.09 ± 0.015	1.11 ± 0.035	1.06 ± 0.037
UniProt Q9H4A3 and related entries	1.01 ± 0.043	1 ± 0.025	0.987 ± 0.029	1.03 ± 0.06	0.964 ± 0.026	0.991 ± 0.02
UniProt Q9H0F7 and related entries	1.08 ± 0.13	1.02 ± 0.095	1.1 ± 0.067	0.919 ± 0.1	1.07 ± 0.05	1.06 ± 0.17
UniProt Q9H8W3	1.27 ± 0.075	1.3 ± 0.17	1.33 ± 0.093	1.39 ± 0.17	1.38 ± 0.15	1.32 ± 0.073
UniProt Q9NP87	1.02 ± 0.08	1.06 ± 0.046	1.06 ± 0.018	1.07 ± 0.065	0.954 ± 0.11	0.985 ± 0.11
CHMP1A (UniProt Q9HD42)	1.13 ± 0.13	1.14 ± 0.066	1.12 ± 0.054	1.17 ± 0.088	1.12 ± 0.023	1.04 ± 0.11
GLIPR2 (UniProt Q9H4G4)	0.9756 ± 0.0029	0.976 ± 0.019	0.926 ± 0.021	0.998 ± 0.013	0.952 ± 0.032	0.937 ± 0.028
RHOF (UniProt Q9HBH0)	1.07 ± 0.19	1.05 ± 0.15	1.05 ± 0.17	0.994 ± 0.19	1.03 ± 0.068	1.09 ± 0.12
UniProt Q9H813 and related entries	1.05 ± 0.12	1.09 ± 0.061	1.08 ± 0.042	1 ± 0.055	1.04 ± 0.096	1.05 ± 0.038
UniProt Q9NP72 and related entries	0.99 ± 0.047	1.01 ± 0.047	0.973 ± 0.04	0.952 ± 0.094	0.981 ± 0.044	0.974 ± 0.06
UniProt Q9GZU8	0.91 ± 0.038	0.893 ± 0.023	0.869 ± 0.037	0.919 ± 0.055	0.859 ± 0.036	0.844 ± 0.023
SCPEP1 (UniProt Q9HB40)	0.9871 ± 0.0082	0.945 ± 0.022	0.9333 ± 0.0072	0.937 ± 0.024	0.924 ± 0.012	0.878 ± 0.057
ANAPC1 (UniProt Q9H1A4)	1.1 ± 0.061	1.05 ± 0.043	1.05 ± 0.012	1.01 ± 0.076	1.06 ± 0.027	1.04 ± 0.049
CCDC86 (UniProt Q9H6F5)	1.121 ± 0.011	1.17 ± 0.047	1.25 ± 0.054	1.32 ± 0.022	1.23 ± 0.063	1.35 ± 0.073
